We go through four molecules from publication doi:10.1101/2023.03.09.531943.

By UniProt entry, the sequences of proteins in these tests, tags left out. Residues count along the entry.
UniProt P02769, residues 25-607: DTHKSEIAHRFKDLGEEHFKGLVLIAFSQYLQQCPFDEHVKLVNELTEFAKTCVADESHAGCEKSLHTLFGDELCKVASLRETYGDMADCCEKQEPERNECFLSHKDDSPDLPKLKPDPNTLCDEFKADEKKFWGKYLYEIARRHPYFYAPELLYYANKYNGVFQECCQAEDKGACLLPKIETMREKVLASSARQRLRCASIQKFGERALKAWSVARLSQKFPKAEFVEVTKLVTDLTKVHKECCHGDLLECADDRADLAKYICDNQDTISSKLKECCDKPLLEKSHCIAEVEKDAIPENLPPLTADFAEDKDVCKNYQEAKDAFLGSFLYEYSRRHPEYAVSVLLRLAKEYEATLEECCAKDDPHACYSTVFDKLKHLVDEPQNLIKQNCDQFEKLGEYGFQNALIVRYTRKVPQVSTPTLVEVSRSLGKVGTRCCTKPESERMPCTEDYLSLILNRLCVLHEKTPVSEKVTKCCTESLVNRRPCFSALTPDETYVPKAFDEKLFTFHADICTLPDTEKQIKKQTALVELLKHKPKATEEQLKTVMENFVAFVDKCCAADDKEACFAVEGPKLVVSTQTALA
UniProt Q8VZ50: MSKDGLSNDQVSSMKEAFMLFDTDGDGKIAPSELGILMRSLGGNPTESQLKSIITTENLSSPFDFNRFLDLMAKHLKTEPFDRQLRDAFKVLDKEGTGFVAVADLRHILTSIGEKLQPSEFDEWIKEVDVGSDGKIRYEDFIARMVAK

Substitutions are numbered along the chain they refer to. Read-outs that look alike come from different tables or passages of the source. Results are given in words; binding and its absence hold for the method and conditions named. Some results given as binding are weak or reduced against the parent protein; the word gives no strength.

Experiment [1] deals with IQD14-IQ2 synthetic peptide, residues 344-367 (Arabidopsis thaliana). Briefly: ITC.
Experiment [2] has the same target. Briefly: ITC. The source holds these as a separate data set. Background: Isothermal titration calorimetry measures the heat released or taken up as one component is titrated into another.
The target of experiment [3] is BSA (UniProt P02769). Briefly: far-Western, overlay or dot blot.
Experiment [4] deals with BSA (UniProt P02769). The experiment can be described thus: far-Western, overlay or dot blot. This is another data set of the same source.

B1: recombinant CML13 (protein, UniProt Q94AZ4 1-148)
chain: MGKDGLSDDQVSSMKEAFMLFDTDGDGKIAPSELGILMRSLGGNPTQAQLKSIIASENLSSPFDFNRFLDLMAKHLKTEPFDRQLRDAFKVLDKEGTGFVAVADLRHILTSIGEKLEPNEFDEWIKEVDVGSDGKIRYEDFIARMVAK
On to B1, for which the binding entry in experiment [1] and in experiment [2] was “binds weakly” throughout.

B2: biotinylated CML14 (protein, UniProt Q8VZ50 1-148)
chain: B1 chain with G2S, D8N, Q47E, A48S, A55T, S56T, E117Q, N119S
modifications: biotin, covalently conjugated (biotin-NHS ester), sites not stated
For B2, the binding result with BSA [3] and in the experiment with BSA [4] was “no binding (tested: 200 nM)” in each case.

B3: recombinant CML14 (protein, UniProt Q8VZ50 1-148)
chain: B1 chain with G2S, D8N, Q47E, A48S, A55T, S56T, E117Q, N119S
Take B3: the binding entry in experiment [1] and in experiment [2] was “binds weakly” each time.

B4: biotinylated CML13 (protein, UniProt Q94AZ4 1-148)
chain: B1 chain
modifications: biotin, covalently conjugated (biotin-NHS ester), sites not stated
With B4, the binding result in the experiment with BSA [3] and with BSA [4] was “no binding (tested: 200 nM)” throughout.
